From the supplement of paper PMC10849652
Some of the results follow.

Protein sequences, listed by entry. Tags and fused reporters are not part of them. Lines headed by an entry give the natural chain unless they say otherwise; changes in a name come on top.
UniProt P52630: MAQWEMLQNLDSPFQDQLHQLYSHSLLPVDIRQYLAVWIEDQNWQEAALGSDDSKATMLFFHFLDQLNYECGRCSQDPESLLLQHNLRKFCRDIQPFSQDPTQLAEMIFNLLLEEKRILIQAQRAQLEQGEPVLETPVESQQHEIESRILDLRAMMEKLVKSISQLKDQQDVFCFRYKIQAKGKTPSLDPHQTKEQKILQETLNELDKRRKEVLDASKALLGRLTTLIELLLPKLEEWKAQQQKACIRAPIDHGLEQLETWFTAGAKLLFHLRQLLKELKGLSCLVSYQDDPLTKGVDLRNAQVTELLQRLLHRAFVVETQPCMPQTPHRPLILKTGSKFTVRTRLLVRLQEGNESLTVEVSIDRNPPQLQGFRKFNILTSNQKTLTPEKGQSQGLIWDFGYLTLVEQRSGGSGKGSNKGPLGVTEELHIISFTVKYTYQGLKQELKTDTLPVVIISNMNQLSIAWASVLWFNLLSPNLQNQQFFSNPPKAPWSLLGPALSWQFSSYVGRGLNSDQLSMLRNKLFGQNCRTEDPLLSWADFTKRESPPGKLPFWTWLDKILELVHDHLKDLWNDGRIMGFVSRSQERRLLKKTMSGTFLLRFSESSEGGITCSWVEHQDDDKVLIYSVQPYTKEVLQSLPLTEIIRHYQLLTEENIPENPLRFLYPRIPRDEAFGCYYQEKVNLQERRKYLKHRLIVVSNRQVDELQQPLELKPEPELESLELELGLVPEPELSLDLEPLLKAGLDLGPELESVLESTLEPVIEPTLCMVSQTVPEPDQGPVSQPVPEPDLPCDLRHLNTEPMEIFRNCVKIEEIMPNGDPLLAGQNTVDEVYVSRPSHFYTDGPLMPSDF
UniProt Q9HBM1: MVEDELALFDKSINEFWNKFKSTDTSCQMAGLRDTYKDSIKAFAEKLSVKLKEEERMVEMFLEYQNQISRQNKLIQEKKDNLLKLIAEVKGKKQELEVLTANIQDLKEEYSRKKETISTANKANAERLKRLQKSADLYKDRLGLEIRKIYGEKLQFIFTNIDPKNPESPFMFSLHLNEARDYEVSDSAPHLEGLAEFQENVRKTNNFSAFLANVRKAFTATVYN
UniProt Q9UNL2: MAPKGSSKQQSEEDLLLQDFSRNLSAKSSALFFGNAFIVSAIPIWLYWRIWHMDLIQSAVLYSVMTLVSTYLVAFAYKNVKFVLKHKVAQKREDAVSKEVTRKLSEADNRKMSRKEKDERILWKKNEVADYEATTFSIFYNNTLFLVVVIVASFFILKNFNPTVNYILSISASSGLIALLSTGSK
UniProt Q8WW59: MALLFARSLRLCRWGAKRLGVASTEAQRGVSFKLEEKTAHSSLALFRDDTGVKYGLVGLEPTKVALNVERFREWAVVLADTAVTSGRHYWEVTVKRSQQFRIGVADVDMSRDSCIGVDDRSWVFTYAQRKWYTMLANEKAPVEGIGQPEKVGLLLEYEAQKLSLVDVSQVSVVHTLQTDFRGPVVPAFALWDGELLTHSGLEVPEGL
UniProt Q13242, whole entry, looked up: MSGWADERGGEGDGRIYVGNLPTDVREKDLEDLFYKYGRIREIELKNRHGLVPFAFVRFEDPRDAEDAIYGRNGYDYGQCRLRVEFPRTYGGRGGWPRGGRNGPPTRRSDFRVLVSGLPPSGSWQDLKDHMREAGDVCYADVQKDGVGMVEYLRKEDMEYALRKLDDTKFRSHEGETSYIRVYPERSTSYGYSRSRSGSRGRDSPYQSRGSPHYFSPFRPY
UniProt Q9BWG4: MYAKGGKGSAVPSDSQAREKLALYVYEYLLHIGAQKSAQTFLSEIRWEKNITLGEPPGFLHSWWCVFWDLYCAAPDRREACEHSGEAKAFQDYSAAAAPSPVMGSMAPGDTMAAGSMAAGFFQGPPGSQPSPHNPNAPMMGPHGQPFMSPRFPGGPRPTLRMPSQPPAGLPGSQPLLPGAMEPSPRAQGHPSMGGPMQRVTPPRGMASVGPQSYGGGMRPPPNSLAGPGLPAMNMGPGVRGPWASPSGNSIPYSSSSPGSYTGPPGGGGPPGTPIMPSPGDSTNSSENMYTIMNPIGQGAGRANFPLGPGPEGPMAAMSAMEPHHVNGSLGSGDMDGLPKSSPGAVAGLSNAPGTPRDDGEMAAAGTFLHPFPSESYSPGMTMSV
UniProt Q9UH36: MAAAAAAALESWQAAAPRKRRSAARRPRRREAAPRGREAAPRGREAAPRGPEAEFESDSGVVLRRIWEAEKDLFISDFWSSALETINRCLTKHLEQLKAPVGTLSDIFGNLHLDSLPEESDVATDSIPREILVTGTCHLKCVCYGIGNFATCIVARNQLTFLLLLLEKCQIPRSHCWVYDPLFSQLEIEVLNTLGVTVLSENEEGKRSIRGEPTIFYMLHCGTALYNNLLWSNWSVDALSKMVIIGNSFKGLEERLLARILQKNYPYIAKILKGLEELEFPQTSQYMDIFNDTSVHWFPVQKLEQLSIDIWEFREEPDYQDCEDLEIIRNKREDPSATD
UniProt Q9BXP5: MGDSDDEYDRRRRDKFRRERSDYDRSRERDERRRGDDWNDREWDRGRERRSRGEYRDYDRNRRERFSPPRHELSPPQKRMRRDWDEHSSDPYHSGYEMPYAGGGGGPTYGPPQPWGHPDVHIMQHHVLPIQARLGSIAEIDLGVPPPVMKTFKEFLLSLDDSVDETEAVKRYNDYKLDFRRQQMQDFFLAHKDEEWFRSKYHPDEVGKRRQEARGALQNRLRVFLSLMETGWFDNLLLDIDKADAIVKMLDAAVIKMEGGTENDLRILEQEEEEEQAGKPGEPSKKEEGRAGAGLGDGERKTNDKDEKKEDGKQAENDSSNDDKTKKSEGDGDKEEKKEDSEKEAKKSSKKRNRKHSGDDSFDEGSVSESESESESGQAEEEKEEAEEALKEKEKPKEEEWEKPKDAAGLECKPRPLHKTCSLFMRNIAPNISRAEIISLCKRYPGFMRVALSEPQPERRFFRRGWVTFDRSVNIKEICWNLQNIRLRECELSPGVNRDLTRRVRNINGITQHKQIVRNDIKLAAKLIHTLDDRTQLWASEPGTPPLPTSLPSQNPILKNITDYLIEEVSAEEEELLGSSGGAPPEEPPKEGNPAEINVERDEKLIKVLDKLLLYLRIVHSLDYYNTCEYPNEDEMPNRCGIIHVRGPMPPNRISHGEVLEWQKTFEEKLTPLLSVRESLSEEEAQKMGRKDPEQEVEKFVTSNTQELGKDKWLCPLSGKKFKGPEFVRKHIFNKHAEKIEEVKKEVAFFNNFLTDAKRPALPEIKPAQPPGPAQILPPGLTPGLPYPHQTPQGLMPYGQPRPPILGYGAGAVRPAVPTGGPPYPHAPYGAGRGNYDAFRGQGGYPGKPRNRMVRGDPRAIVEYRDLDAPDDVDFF
UniProt Q9BUA3: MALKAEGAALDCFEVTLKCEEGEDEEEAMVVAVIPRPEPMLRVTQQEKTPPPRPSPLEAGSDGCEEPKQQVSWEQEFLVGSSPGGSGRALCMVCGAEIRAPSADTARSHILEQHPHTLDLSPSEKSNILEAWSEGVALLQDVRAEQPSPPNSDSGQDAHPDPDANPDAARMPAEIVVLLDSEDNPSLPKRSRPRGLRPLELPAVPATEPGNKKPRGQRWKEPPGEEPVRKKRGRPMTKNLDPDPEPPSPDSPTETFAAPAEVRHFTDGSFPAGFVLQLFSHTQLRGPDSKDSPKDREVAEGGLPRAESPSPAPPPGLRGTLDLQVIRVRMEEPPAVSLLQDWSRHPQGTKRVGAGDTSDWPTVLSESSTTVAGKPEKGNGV
UniProt Q5W111: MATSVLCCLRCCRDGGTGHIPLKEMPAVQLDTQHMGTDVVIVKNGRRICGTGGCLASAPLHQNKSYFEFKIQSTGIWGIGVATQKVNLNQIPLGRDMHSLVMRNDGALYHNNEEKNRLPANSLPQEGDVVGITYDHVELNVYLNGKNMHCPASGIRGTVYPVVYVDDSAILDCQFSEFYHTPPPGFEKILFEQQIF
UniProt Q9Y657, whole entry, looked up: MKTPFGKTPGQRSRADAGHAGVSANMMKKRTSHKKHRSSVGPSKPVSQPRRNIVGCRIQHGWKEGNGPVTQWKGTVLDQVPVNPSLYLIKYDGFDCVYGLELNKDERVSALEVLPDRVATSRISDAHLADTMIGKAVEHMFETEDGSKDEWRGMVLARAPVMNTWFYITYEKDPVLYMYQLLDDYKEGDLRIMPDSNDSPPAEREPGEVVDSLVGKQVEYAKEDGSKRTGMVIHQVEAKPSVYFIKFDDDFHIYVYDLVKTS
UniProt Q8NBT2: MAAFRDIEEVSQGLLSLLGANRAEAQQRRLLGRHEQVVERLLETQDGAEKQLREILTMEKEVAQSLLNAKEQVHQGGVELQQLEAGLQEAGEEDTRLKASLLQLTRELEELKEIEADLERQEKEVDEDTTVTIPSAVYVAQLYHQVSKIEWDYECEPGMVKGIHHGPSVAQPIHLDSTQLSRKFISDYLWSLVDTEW
UniProt Q9UBP0: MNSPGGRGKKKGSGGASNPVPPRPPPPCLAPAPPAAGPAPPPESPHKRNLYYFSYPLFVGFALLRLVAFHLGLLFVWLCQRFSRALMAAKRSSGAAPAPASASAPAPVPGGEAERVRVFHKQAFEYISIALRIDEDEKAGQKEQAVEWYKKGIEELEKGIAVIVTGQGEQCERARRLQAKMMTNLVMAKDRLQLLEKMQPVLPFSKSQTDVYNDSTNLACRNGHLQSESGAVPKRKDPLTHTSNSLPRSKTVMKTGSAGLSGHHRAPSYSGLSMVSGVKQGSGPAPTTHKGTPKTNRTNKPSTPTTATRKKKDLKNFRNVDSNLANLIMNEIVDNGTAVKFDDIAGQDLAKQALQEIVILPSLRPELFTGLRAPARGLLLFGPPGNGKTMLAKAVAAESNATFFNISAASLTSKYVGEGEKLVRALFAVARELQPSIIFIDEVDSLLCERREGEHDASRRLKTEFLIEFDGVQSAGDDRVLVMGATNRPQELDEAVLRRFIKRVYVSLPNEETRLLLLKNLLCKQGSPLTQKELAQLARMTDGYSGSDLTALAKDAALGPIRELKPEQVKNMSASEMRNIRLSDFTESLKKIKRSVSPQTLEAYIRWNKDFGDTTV
UniProt Q8N9Q2: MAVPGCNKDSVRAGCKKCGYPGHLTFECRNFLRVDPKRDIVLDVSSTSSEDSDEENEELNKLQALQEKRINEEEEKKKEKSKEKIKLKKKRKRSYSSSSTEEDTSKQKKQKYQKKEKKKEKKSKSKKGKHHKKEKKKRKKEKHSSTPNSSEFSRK
UniProt P35325: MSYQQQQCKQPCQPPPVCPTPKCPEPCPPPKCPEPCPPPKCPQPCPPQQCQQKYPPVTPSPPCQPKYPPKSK

Tests used:
Assay in all cases: log2 fold change, soluble protein after heating vs DMSO (PISA); higher = thermal stabilisation; K562 cells, 10 uM, 30 min; active = over 0.2 and 3.5 SD of the protein, either way, in both replicates (recomputed)
[1] = compound: COC1=CC=C(C=C1)CN2C=CC3=C2C=C(C=C3)C(=O)NO
In short: (§1)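 K562 cells (2×10^6 cells/mL) were treated with 10 μM compound for 30 min, and aliquots were heated for 3 min over 48°C-58°C. Pooled aliquots were extracted in PBS with 0.5% NP-40 at 4°C, and the supernatant after 21,000xg for 90 min was measured by TMTpro 16plex LC-MS/MS with channel sums equalised. Reported thermal stability, relative to control samples and from duplicates, is a log2 fold change.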

filanesib = compound: CON(C)C(=O)N1N=C(c2cc(F)ccc2F)S[C@@]1(CCCN)c1ccccc1 [filanesib]
In short: as §1

zotarolimus = compound: CO[C@H]1C[C@@H]2CC[C@@H](C)[C@@](O)(O2)C(=O)C(=O)N2CCCC[C@H]2C(=O)O[C@H]([C@H](C)C[C@@H]2CC[C@H](n3cnnn3)[C@H](OC)C2)CC(=O)[C@H](C)/C=C(\C)[C@@H](O)[C@@H](OC)C(=O)[C@H](C)C[C@H](C)/C=C/C=C/C=C/1C [zotarolimus]
In short: as §1

idasanutlin = compound: COc1cc(C(=O)O)ccc1NC(=O)[C@@H]1N[C@@H](CC(C)(C)C)[C@](C#N)(c2ccc(Cl)cc2F)[C@H]1c1cccc(Cl)c1F [idasanutlin]
In short: as §1

alisertib = compound: COc1cc(Nc2ncc3c(n2)-c2ccc(Cl)cc2C(c2c(F)cccc2OC)=NC3)ccc1C(=O)O [alisertib]
In short: as §1

[2] = compound: COc1cc2nc(-c3cc(F)ccc3O)nc(N[C@@H]3CNC[C@H]3C(C)(C)O)c2cc1OC
In short: as §1

gefitinib = compound: COc1cc2ncnc(Nc3ccc(F)c(Cl)c3)c2cc1OCCCN1CCOCC1 [gefitinib]
In short: as §1

[3] = compound: COc1cccc2cc(-c3nc([C@H]4CC[C@H](C(=O)O)CC4)n4ncnc(N)c34)[nH]c12
In short: as §1

lapatinib = compound: CS(=O)(=O)CCNCc1ccc(-c2ccc3ncnc(Nc4ccc(OCc5cccc(F)c5)c(Cl)c4)c3c2)o1 [lapatinib]
In short: as §1

pictilisib = compound: CS(=O)(=O)N1CCN(Cc2cc3nc(-c4cccc5[nH]ncc45)nc(N4CCOCC4)c3s2)CC1 [pictilisib]
In short: as §1

Measured: log2 fold change

SPTAN1 isoform 2 (UniProt Q13813)
inactive: [1] -0.03 | filanesib 0.07 | zotarolimus 0 | idasanutlin 0.021 | alisertib 0.301 | [2] 0.109 | gefitinib 0.09 | [3] -0.012 | lapatinib 0.04 | pictilisib 0.057

STAT2 (UniProt P52630)
inactive: [1] -0.168 | filanesib 0.085 | zotarolimus 0.039 | idasanutlin 0.12 | alisertib -0.01 | [3] -0.535 | pictilisib -0.049

SPC25 (UniProt Q9HBM1)
inactive: [1] 0.048 | filanesib 0.021 | zotarolimus 0.037 | idasanutlin -0.024 | alisertib -0.056 | [2] -0.076 | gefitinib 0.028 | [3] -0.054 | lapatinib 0.008 | pictilisib -0.012

SSR3 isoform 2 (UniProt Q9UNL2)
inactive: [1] -0.236 | filanesib -0.107 | zotarolimus 0.087 | idasanutlin 0.066 | alisertib -0.015 | [2] -0.013 | gefitinib 0.003 | [3] 0.08 | lapatinib 0.006 | pictilisib -0.096

SPRYD4 (UniProt Q8WW59)
inactive: [1] -0.077 | filanesib -0.034 | zotarolimus -0.018 | idasanutlin -0.022 | alisertib 0.096 | [2] 0.009 | gefitinib 0 | [3] 0.04 | lapatinib -0.048 | pictilisib 0.06

SRSF9 (UniProt Q13242)
inactive: [1] -0.088 | filanesib 0.378 | zotarolimus -0.026 | idasanutlin 0.297 | alisertib -0.118 | [2] -0.09 | gefitinib -0.068 | [3] -0.128 | lapatinib 0.155 | pictilisib -0.036

SSBP4 (UniProt Q9BWG4)
inactive: [1] -0.065 | filanesib -0.601 | idasanutlin 0.122 | alisertib 0.018 | [2] 0.076 | gefitinib -0.001 | [3] 0.029 | lapatinib -0.145 | pictilisib 0.117

SRRD (UniProt Q9UH36)
inactive: [1] -0.08 | filanesib -0.038 | idasanutlin -0.375 | alisertib -0.224 | [2] -0.047 | gefitinib 0.192 | [3] 0 | lapatinib 0.001

SRRT (UniProt Q9BXP5)
inactive: [1] 0.198 | filanesib -0.174 | zotarolimus 0 | idasanutlin -0.103 | alisertib 0.065 | [2] 0.02 | gefitinib 0.093 | [3] 0 | lapatinib 0 | pictilisib -0.013

SPINDOC (UniProt Q9BUA3)
inactive: [1] 0.165 | filanesib 0.221 | zotarolimus -0.02 | idasanutlin 0.008 | alisertib -0.113 | [2] 0.145 | gefitinib 0.073 | [3] 0.017 | lapatinib -0.045 | pictilisib -0.117

Two records drawn at random from the list so far, as already listed:
SPINDOC (UniProt Q9BUA3)
inactive: [1] 0.165 | filanesib 0.221 | zotarolimus -0.02 | idasanutlin 0.008 | alisertib -0.113 | [2] 0.145 | gefitinib 0.073 | [3] 0.017 | lapatinib -0.045 | pictilisib -0.117

SRSF9 (UniProt Q13242)
inactive: [1] -0.088 | filanesib 0.378 | zotarolimus -0.026 | idasanutlin 0.297 | alisertib -0.118 | [2] -0.09 | gefitinib -0.068 | [3] -0.128 | lapatinib 0.155 | pictilisib -0.036

Later entries:

SPRYD7 (UniProt Q5W111)
inactive: [1] 0.007 | filanesib -0.029 | zotarolimus 0.061 | idasanutlin -0.043 | alisertib -0.098 | [2] 0.119 | gefitinib 0.03 | [3] -0.016 | lapatinib -0.013 | pictilisib 0.063

SPIN1 (UniProt Q9Y657)
inactive: [1] -0.045 | filanesib 0.084 | zotarolimus -0.025 | idasanutlin 0.077 | alisertib -0.058 | [2] 0.039 | gefitinib 0.054 | [3] 0.044 | lapatinib -0.011 | pictilisib 0.061

SPC24 (UniProt Q8NBT2)
inactive: [1] 0.081 | filanesib -0.034 | zotarolimus 0.062 | idasanutlin -0.026 | alisertib -0.047 | [2] 0.005 | gefitinib 0.022 | [3] -0.023 | lapatinib 0.008 | pictilisib -0.008

SPAST (UniProt Q9UBP0)
inactive: [1] 0.03 | filanesib -0.028 | zotarolimus -0.006 | idasanutlin -0.038 | alisertib -0.1 | [2] 0.096 | gefitinib -0.019 | [3] -0.042 | lapatinib -0.019 | pictilisib -0.041

SREK1IP1 (UniProt Q8N9Q2)
inactive: filanesib 0.152 | zotarolimus 0.01 | idasanutlin 0.159 | alisertib -0.025 | [2] 0.076 | gefitinib -0.07 | [3] 0.049 | lapatinib 0.086 | pictilisib 0.09

SPRR2B (UniProt P35325)
inactive: alisertib 0.472 | gefitinib 0.092 | [3] 0.047
